# Source: patent publication US20190076507A1, “Artificial Red Blood Cell Having Ability to Inhibit Conversion of Hemoglobin into Methemoglobin” (Public University Corporation Nara Medical University, priority 2016, published 2019)
# Test: Reactivity of NADH with NOC7 (absorbance at 340 nm), no Hb
# Settings: mixed with NOC7 in PBS, 25° C., 10 minutes
smiles,measurement,value
"NC(=O)C1=CN([C@@H]2O[C@H](COP(=O)(O)OP(=O)(O)OC[C@H]3O[C@@H](n4cnc5c(N)ncnc54)[C@H](O)[C@@H]3O)[C@@H](O)[C@H]2O)C=CC1 [NADH, nicotinamide adenine dinucleotide (NADH)]",change of absorbance at 340 nm,decreased
